Measured values: PMC12700825
These are yes or no findings as the source states them, for the method shown. Binding seen in cells or lysates may run through a third protein. Some entries that bind do so weakly or less than the wild type.

The chains behind the UniProt entries cited, without tags or fusion partners.
UniProt P63073: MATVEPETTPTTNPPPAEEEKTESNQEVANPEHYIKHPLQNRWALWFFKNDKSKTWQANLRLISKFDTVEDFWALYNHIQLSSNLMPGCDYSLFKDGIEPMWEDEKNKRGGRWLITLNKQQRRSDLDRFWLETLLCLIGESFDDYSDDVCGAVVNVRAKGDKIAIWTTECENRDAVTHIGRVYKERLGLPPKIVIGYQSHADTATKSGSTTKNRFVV
UniProt Q7TMB8: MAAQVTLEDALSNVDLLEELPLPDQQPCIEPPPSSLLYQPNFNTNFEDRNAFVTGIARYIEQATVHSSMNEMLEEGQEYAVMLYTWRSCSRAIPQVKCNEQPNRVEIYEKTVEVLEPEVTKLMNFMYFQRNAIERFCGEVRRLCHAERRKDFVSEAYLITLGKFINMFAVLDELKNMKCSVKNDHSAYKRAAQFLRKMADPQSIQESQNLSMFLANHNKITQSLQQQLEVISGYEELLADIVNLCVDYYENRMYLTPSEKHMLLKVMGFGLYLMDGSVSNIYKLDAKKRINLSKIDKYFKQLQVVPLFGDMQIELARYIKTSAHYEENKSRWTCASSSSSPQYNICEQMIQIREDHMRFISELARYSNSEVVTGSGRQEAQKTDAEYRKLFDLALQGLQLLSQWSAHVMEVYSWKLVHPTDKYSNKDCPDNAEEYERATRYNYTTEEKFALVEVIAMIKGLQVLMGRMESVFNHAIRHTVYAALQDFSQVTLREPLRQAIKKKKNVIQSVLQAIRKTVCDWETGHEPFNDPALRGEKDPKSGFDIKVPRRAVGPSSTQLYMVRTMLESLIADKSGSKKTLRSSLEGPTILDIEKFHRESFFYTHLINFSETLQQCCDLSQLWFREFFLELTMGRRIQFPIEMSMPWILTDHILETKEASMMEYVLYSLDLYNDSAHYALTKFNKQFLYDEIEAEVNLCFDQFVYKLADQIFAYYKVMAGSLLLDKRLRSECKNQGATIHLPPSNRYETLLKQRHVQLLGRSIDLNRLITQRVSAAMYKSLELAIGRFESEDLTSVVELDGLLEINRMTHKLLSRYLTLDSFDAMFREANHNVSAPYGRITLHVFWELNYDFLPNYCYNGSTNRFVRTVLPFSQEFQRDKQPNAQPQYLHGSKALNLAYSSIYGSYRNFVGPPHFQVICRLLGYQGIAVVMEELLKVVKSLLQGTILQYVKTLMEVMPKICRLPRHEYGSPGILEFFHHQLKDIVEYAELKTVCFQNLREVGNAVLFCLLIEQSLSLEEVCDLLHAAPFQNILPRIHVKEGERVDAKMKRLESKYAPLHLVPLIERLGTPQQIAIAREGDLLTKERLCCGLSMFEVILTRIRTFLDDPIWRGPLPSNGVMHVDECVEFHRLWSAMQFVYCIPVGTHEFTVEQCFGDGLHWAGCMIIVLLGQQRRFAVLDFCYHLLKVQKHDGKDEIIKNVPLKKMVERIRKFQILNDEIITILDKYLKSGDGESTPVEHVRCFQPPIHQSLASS

Assays:
[1] = target: eukaryotic initiation factor 4E (eIF4E) (mouse (endogenous in hippocampus and primary hippocampal neurons)) (UniProt P63073); assay: co-IP; lysates of primary hippocampal neurons with Eif4g1 shRNA or control shRNA precipitated with an anti-eIF4E antibody; blots for eIF4G1 and CYFIP1 (Supplemental Fig. 15)
[2] = target: eukaryotic initiation factor 4E (eIF4E) (mouse (endogenous in hippocampus and primary hippocampal neurons)) (UniProt P63073); assay: co-IP; lysates of hippocampal tissue of WT and Fmr1 KO mice (vehicle or Rilmenidine) precipitated with an anti-eIF4E antibody overnight at 4 °C, Protein A/G agarose; blots for eIF4E, eIF4G1 and CYFIP1; naive IgG as negative control

Question: For “cytoplasmic FMRP-interacting protein 1 (CYFIP1) (from UniProt Q7TMB8 1-1253)”, which binding [1] is on record?
Answer: binds

Question: And the binding [2]?
Answer: binds
